In paper PMC4125083:
Results are given in words; binding and its absence hold for the method and conditions named. Binding can be weak; no strength is given.

Target: Full-length GCN-1 (1–2634) (C. elegans) (UniProt B3CJ34)
Experiment: two-hybrid; GAL4 fusion constructs (GCN-1 in pGBKT7, ABCF-3 in pGADT7) in yeast strain PJ649A; growth for three days at 30°C on SD plates without tryptophan, leucine and histidine

Full-length ABCF-3 (1–712) (from UniProt Q20306)
binding: binds
